Data as given in patent publication US20060286102A1.
Results are given in words; binding and its absence hold for the method and conditions named. Binding seen in cells or lysates may run through a third protein. Some binding calls cover weakened binding; strength is not graded here.

Amino acid sequences for entries named in this document (tags omitted). Residues count along the entry.
UniProt O43915, residues 93-201: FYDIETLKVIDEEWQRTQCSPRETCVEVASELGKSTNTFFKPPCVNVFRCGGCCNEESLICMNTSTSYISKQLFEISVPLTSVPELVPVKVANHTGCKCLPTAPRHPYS
UniProt P35916, residues 25-776: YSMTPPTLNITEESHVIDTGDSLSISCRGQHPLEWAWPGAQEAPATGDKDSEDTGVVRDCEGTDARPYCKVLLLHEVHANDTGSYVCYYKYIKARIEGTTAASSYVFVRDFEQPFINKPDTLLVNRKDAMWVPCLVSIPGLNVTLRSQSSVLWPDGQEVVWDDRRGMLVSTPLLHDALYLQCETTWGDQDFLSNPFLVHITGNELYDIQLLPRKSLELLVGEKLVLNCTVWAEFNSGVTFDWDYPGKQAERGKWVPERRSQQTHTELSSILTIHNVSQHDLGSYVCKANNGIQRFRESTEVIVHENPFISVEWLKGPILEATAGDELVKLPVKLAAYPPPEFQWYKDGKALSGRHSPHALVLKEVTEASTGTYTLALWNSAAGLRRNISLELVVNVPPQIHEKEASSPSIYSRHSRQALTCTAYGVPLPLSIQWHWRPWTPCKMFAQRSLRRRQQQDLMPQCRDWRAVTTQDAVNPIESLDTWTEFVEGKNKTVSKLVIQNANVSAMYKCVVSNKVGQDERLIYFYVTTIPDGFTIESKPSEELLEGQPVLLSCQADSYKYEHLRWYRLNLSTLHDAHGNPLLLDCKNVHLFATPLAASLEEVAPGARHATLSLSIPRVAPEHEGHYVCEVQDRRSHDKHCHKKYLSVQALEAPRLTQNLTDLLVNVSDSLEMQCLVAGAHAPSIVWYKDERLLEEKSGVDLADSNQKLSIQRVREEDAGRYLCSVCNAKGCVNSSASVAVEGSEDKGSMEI

Assays:
VEGF-D [1] = target: VEGF-D (UniProt O43915); experiment: co-immunoprecipitation with anti-VEGF-D antibodies from conditioned medium, anti-Myc Western blot
VEGF-D [2] = target: VEGF-D (UniProt O43915); experiment: co-immunoprecipitation competition; sVEGFR-3-Fc (2 ug) competes with sVEGF3-Myc for VEGF-D

binding (VEGF-D [1])	binding (VEGF-D [2])	Substance
binds		soluble VEGFR-3 (Myc-His tagged, in conditioned medium of transfected 293T cells) (from UniProt P35916 25-272) (receptor)
	binds	soluble VEGFR-3-Fc (R&D Systems) (from UniProt P35916 25-776) (Fc fusion)
